Chains of the proteins cited; added tags and fusions are not shown. A line that says so, or that is headed by a name, gives the form on record, which may keep a tag or linker. Residues count along the entry.
UniProt P22756, 31-949: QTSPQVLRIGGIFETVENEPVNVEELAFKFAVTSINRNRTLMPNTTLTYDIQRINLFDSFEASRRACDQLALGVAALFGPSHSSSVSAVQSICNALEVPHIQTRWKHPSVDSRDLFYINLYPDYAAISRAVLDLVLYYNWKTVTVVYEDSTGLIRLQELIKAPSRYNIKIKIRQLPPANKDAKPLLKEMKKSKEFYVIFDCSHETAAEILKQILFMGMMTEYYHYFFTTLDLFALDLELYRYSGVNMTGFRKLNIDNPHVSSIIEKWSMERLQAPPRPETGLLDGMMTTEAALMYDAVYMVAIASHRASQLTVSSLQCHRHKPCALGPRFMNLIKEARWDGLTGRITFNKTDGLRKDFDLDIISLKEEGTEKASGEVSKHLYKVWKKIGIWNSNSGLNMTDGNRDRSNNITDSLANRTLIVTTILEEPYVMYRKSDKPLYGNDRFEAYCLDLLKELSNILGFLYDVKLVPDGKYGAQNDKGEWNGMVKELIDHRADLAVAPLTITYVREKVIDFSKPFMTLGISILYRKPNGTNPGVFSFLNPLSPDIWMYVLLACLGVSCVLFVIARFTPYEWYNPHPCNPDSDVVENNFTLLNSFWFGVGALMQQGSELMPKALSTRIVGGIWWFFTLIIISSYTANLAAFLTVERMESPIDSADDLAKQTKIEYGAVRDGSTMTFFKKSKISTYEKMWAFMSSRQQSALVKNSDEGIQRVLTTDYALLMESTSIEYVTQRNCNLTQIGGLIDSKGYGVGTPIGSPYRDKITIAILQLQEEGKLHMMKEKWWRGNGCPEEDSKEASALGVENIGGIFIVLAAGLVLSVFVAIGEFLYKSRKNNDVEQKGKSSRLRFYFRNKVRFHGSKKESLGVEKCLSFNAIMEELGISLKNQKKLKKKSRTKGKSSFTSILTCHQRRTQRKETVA
UniProt P42260, 32-908: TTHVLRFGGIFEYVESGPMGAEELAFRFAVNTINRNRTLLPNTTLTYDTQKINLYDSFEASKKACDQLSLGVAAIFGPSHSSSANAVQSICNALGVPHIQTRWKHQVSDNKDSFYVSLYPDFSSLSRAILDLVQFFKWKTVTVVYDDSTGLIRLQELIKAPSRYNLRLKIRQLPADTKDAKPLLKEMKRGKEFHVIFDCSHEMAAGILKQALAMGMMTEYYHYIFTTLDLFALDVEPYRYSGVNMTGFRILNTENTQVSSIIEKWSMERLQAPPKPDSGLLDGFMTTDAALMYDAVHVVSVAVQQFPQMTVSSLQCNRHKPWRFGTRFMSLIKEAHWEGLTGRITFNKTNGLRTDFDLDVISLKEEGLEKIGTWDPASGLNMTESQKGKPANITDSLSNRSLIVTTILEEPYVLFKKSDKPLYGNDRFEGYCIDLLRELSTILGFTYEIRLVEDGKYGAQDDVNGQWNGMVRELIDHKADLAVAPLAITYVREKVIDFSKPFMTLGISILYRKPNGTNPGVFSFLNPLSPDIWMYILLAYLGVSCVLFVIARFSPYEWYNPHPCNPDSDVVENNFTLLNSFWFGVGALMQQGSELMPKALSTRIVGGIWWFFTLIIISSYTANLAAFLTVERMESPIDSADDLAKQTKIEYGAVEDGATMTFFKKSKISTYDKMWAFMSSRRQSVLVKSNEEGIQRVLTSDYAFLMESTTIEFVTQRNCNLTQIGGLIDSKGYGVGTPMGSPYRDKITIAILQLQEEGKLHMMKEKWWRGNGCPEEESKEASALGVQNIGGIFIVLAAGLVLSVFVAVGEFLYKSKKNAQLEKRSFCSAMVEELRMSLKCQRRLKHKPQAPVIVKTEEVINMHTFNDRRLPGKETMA
GluA2Qflip AMPA receptor (homomeric, Q/R site unedited), one chain, as listed by the source: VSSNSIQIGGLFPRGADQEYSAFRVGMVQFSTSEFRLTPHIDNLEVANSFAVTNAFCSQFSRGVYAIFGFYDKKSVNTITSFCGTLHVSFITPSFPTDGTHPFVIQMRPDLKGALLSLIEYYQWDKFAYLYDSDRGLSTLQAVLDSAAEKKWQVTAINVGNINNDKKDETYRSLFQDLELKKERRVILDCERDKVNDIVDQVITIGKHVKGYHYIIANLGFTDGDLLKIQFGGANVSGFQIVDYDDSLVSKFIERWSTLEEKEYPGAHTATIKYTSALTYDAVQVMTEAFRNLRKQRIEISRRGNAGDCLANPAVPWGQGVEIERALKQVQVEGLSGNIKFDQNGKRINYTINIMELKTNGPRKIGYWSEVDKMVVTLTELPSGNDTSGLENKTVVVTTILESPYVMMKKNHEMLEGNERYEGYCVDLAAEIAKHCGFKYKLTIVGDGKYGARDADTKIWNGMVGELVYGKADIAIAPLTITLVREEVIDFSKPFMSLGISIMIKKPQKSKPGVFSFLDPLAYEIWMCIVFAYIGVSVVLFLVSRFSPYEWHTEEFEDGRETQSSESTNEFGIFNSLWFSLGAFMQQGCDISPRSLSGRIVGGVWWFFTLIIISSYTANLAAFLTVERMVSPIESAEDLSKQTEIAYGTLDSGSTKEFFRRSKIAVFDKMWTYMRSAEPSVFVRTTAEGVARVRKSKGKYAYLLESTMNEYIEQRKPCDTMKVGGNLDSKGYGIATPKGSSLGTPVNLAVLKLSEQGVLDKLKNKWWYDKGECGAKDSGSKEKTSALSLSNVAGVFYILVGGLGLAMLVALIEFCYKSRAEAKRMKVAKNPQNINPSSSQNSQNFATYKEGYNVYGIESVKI

According to US20190010498:

Legend:
Test in all cases: inhibition of the protein
[1] = biological target: GluK1 kainate receptor (UniProt P22756); conditions: 2'-F at all A, C and U; G is 2'-OH; 2 uM aptamer, both closed- and open-channel inhibited; protein on the cell surface; protein details: transiently expressed in HEK-293S cells; label: 32P (hot ligand in binding assay)
[2] = biological target: GluK2 kainate receptor (UniProt P42260); conditions: 2'-F at all A, C and U; G is 2'-OH; 2 uM aptamer, no inhibition; protein on the cell surface; protein details: transiently expressed in HEK-293S cells; label: 32P (hot ligand in binding assay)
[3] = test system: GluA2Qflip AMPA receptor (homomeric, Q/R site unedited); conditions: 2'-F at all A, C and U; G is 2'-OH; 1 uM aptamer, 0.1 mM glutamate; functional assay, no inhibition; protein on the cell surface

Sequence	functional effect of the aptamer [1]	functional effect of the aptamer [2]	functional effect of the aptamer [3]
GGGAGAAUUCAACUGCCAUCUAGGCACGCUACUGUGAGUGUUGUGAUGGCGGCUGAACGAUCGAAACGGAACUGUAGUACUACAAGCUUCUGGACUCGGU [FN1040]	active	not active	
GGGAGAAUUCAACUGCCAUCUAGGCGGUAGGUGAUCAGCUAGAAUCUCUGAAACGGAACUGUAGUAUAAAAAAAGAGUACUACAAGCUUCUGGACUCGGU [FN1138]			not active

For part of these data: No signal at the amounts used counts as a negative.
